Assay results published in PubChem BioAssay (Tox21).
Several values for one entry are separate records, joined by “and”; a condition that tells them apart may be missing. Equal values may be shown once. This list was built around the results that the source calls inconclusive (neither active nor inactive); the mix of calls is not that of the screen. For part of these data: Potencies of inconclusive entries are doubtful fits and often do not repeat. More than one record can exist for a structure, and the calls need not agree. Activity calls are given as the source filed them. Unless noted, calls come from the whole dose curve.

The chains behind the UniProt entries cited, without tags or fusion partners.
UniProt P14416, whole entry, looked up: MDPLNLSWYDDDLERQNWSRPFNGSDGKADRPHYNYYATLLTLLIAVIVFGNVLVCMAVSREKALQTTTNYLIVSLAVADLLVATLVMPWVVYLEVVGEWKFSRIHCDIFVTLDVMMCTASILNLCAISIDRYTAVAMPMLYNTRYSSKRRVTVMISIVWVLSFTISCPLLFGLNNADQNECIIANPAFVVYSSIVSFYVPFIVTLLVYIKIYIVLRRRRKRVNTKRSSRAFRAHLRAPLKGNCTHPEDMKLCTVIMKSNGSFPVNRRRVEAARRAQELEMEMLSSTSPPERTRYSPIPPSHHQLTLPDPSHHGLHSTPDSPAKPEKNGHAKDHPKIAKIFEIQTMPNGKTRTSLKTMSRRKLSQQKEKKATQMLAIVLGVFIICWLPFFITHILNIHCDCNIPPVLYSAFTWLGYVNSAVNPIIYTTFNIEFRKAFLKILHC

Tests used:
[1] = Nuclear factor erythroid 2-related factor 2/antioxidant responsive element (Nrf2/ARE) small molecule agonists: luciferase reporter gene qHTS assay in human keratinocytes (AID 1919969); conditions: KeratinoSens HaCaT ARE-luciferase, luminescence, 24 h; activity, positive = activation: at 92.4 µM (top of the series); note: nearly all actives have a fitted effect of over 35% in size; note: potency is the fitted concentration of half-maximal effect
[2] = cAMP Responsive Elements (CRE) small molecule agonists, cell-based qHTS assay (AID 1963590); conditions: CRE-bla HEK293T, beta-lactamase FRET ratio, 3 h; activation: at 92.4 µM (top of the series) unless noted; note: potency is the fitted concentration of half-maximal effect
Method in brief: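 Test agents in DMSO were incubated 3 h at 37 C/5% CO2 with CRE-bla HEK 293T cells seeded 18 h earlier; LiveBLAzer B/G FRET substrate was added and read after 2 h at room temperature.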

[3] = target: Beta-2 adrenergic receptor (Homo sapiens) (UniProt P07550); experiment: Adrenergic beta2 receptor (ADRB2) small molecule agonists, cell-based qHTS assay (AID 1963593); conditions: CHO-ADRB2 cells, cAMP HTRF, 30 min; note: potency is the fitted concentration of half-maximal effect;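 for activation: CHO cells stably overexpressing human ADRB2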
Method in brief: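 CHO cells stably over-expressing ADRB2 were plated overnight at 37C, then dosed with compounds plus a stimulation mix containing 100uM IBMX and 25uM Ro-20-1724 for 0.5hr at room temperature. cAMP was measured by HTRF competition, 1hr.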

[4] = cAMP Responsive Elements (CRE) small molecule antagonists, cell-based qHTS assay (AID 1963591; active = well fitted inhibition curve with a large enough effect in the signal ratio in the repeat runs, not every such curve was filed as active; inconclusive = weak or mixed curves, or effect the other way; the % refers to the signal ratio; note: potency is the fitted concentration of half-maximal effect); conditions: CRE-bla HEK293T, beta-lactamase FRET ratio; activity change, negative = inhibition: at 92.4 µM (top of the series) unless noted
Method in brief: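 Reporter line CRE-bla HEK 293T in dialyzed-FBS DMEM; cells preincubated 18 h, treated 3 h with compound plus NKH477 (0.25 uM final); LiveBLAzer FRET, 2 h RT.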

[5] = target: Beta-2 adrenergic receptor (Homo sapiens) (UniProt P07550); experiment: Adrenergic beta2 receptor (ADRB2) small molecule antagonists, cell-based qHTS assay (AID 1963592); conditions: CHO-ADRB2 cells, isoproterenol-stimulated cAMP HTRF ratio, 0.5 h; activity change, negative = inhibition: at 92.4 µM (top of the series) unless noted; note: nearly all actives have a fitted effect of over 50% in size; note: potency is the fitted concentration of half-maximal effect
Method in brief: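 Assay format: CHO-ADRB2 cells, 18-20hr seeding at 37C/5% CO2, then compound plus 1nM isoproterenol agonist mix for 0.5hr RT. Homogeneous time-resolved fluorescence cAMP detection after 1hr, expressed as 665/615 nm ratio.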

[6] = target: D(2) dopamine receptor (Homo sapiens) (UniProt P14416); experiment: Dopamine D2 receptor (DRD2) small molecule agonists, cell-based qHTS assay (AID 1963594); conditions: HEK293-DRD2 cAMP HTRF, agonist mode, 30 min; activation: at 92.4 µM (top of the series) unless noted; note: nearly all actives have a fitted effect of over 35% in size; note: potency is the fitted concentration of half-maximal effect
Method in brief: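 cAMP accumulation in DRD2-HEK293 cells measured by HTRF after 1 h detection; compounds added 10 min before NKH477 (200nM […]) forskolin-analogue stimulation, 30 min at room temperature, with Ro20-1724 present at 0.1 mM final.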

[7] = target: D(2) dopamine receptor (Homo sapiens) (UniProt P14416); experiment: Dopamine D2 receptor (DRD2) small molecule antagonists, cell-based qHTS assay (AID 1963595; active = well fitted inhibition curve with a large enough effect in the signal ratio in the repeat runs, with a control signal flat; inconclusive = weak or mixed curves, or effect the other way; the % refers to the signal ratio); conditions: HEK293-DRD2 cAMP HTRF antagonist mode; activity change, negative = inhibition: at 92.4 µM (top of the series) unless noted
Method in brief: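 Antagonist mode in DRD2-HEK293 cells: after compound addition with 0.1 mM Ro20-1724, cells received quinpirole (12 nM) and NKH477 (200 nM) for 30 min at room temperature; HTRF cAMP read after 1 h detection.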

[8] = activation: at 92.4 µM (top of the series) unless noted
% is set by controls: 0 for no effect and ±100 for the full control effect.

SMILES: CCOCCOCCOCCO
- Potency [1]: inconclusive: 61.1 µM [activator, partial curve, poor fit]
- Potency [2]: inactive
- activation [3, 8]: inconclusive: 44.5%
- activation ([3]; at 92.4 µM (top of the series)): inactive: -18.7%

SMILES: CC(C)c1ccc(C=O)cc1
- Potency [1]: inactive
- Potency [2]: inactive
- activation [3, 8]: inconclusive: 3.73%

SMILES: CC(C)(C)c1ccc(OCC2CO2)cc1 (stereo not given)
- Potency [1]: inconclusive: 78.5 µM [activator, partial curve, poor fit]
- Potency [2]: inconclusive: 70 µM
- Potency [3, 8]: inactive

SMILES: CCO/C=C1\N=C(c2ccccc2)OC1=O
- Potency [1]: inconclusive: 76.6 µM [activator, single point]
- Potency [2]: inconclusive: 34.2 µM [rising, partial curve]
- Potency [3, 8]: inconclusive: 0.683 µM [inhibitor, full curve, poor fit]

SMILES: C=CCCC=C
- Potency [1]: active: 70.5 µM
- Potency [4]: inactive

SMILES: COc1cc(C)c(Cc2cnc(N)nc2N)cc1OC
- Potency [1]: inactive
- Potency [4]: inactive
- Potency [3, 8]: inactive

SMILES: CC(C)CCOC(=O)/C=C/c1ccccc1
- Potency [1]: inconclusive: 61.4 µM [activator, partial curve, poor fit]
- Potency [2]: inactive
- Potency [3, 8]: inactive

SMILES: COc1ccc(CCN(C)CCCN2CCc3cc(OC)c(OC)cc3CC2=O)cc1OC
- Potency [1]: inconclusive: 33.5 µM [activator, partial curve, poor fit]
- Potency [5]: inactive
- Potency [3, 8]: inconclusive: 0.0094 µM [inhibitor, full curve, poor fit]

SMILES: OC(CCN1CCCCC1)(c1ccccc1)c1ccccc1
- Potency [1]: inactive
- Potency [4]: inactive
- Potency [3, 8]: inconclusive: 1.19 µM [inhibitor, single point]

SMILES: CC1(N)CCC(C(C)(C)N)CC1 (stereo not given)
- Potency [1]: inactive
- Potency [4]: inactive
- activation [3, 8]: inconclusive: 0.15%

SMILES: CCCCOc1ccc(OCCCN2CCOCC2)cc1
- Potency [1]: inactive
- Potency [4]: inconclusive: 18.8 µM [activator, partial curve]
- Potency [3, 8]: inactive
- activation [6]: inconclusive: -15% [at 42.5 µM]

SMILES: CC(C)[C@@H]1CC[C@@H](C)C[C@H]1O
- Potency [1]: inconclusive: 70.8 µM [activator, single point]
- activity change, negative = inhibition [4]: inconclusive: -19.2%
- Potency [3, 8]: inconclusive: 0.0486 µM [fluorescent, full curve, poor fit]
- activation [3, 8]: inconclusive: 29.1%
- activation ([3]; at 92.4 µM (top of the series)): inactive: 1.17% and inactive: 3.13% and inactive: 10.1%

SMILES: SCCc1cnccn1
- Potency [1]: inconclusive: 68.6 µM [activator, single point]
- Potency [4]: inconclusive: 45.2 µM [activator, partial curve]
- Potency [3, 8]: inactive

SMILES: Cc1ccc2oc(=O)ccc2c1
- Potency [1]: inconclusive: 11.2 µM [activator, partial curve]
- Potency [4]: inactive
- activation [3, 8]: inconclusive: 4.8%
- activation ([3]; at 92.4 µM (top of the series)): inactive: -13.7%

SMILES: CCCCCCCCCCCCO
- Potency [1]: active: 67.8 µM
- Potency [4]: inactive
- activation [3, 8]: inconclusive: -15.4%
- activation ([3]; at 92.4 µM (top of the series)): inactive: 7.39%

SMILES: CCCCCCCCC(=O)OCC(C)OC(=O)CCCCCCCC (stereo not given)
- Potency [1]: inconclusive: 6.4 µM [activator, single point]
- activity change, negative = inhibition [4]: inconclusive: -2.11%
- activation [3, 8]: inconclusive: 7.24%

SMILES: C[C@H](CCC(=O)O)[C@H]1CC[C@H]2[C@@H]3[C@H](O)C[C@@H]4C[C@H](O)CC[C@]4(C)[C@H]3C[C@H](O)[C@]12C
- Potency [1]: inactive
- Potency [4]: inactive
- Potency [3, 8]: inconclusive: 0.336 µM [activator, partial curve, poor fit]

SMILES: CCCCCCCCc1ccc(S(=O)(=O)O)cc1
- Potency [1]: inactive
- activity change, negative = inhibition [4]: inconclusive: 20.9%
- Potency [3, 8]: inactive

SMILES: CC1CCC(C(C)C)C(O)C1 (stereo not given)
- Potency [1]: inconclusive: 76.3 µM [activator, partial curve, poor fit]
- Potency [4]: inactive
- Potency [3, 8]: inactive

SMILES: C=CC(=O)CCCCC
- Potency [1]: inactive
- Potency [4]: inactive
- Potency [3, 8]: inactive

SMILES: CC(O)CNCC(C)O (stereo not given)
- Potency [1]: inconclusive: 69 µM [activator, partial curve, poor fit]
- Potency [4]: inactive
- Potency [3, 8]: inconclusive: 0.0615 µM [inhibitor, full curve, poor fit]

SMILES: O=c1[nH]nnc2ccccc12
- Potency [1]: inactive
- Potency [5]: inconclusive: 77 µM [inhibitor, single point]
- activation [3, 8]: inconclusive: 0.821% and inconclusive: -13.2%

SMILES: COc1ccc2cc(CCC(C)=O)ccc2c1
- Potency [1]: inconclusive: 0.944 µM [activator, full curve, poor fit]
- Potency [5]: inactive
- Potency [3, 8]: inactive

SMILES: COc1ccnc(CS(=O)c2nc3cc(OC(F)F)ccc3[nH]2)c1OC (stereo not given)
- Potency [1]: inactive
- Potency [4]: inconclusive: 69 µM [activator, single point]
- Potency [3, 8]: inactive

SMILES: O=P(c1ccccc1)(c1ccccc1)c1ccccc1
- Potency [1]: inconclusive: 27.3 µM [activator, single point]
- Potency [4]: inactive
- Potency [3, 8]: inconclusive: 68.6 µM [inhibitor]

SMILES: O=C(O)c1cc(C(=O)O)cc(C(=O)O)c1
- Potency [1]: inconclusive: 0.31 µM [activator, full curve, poor fit]
- activity change, negative = inhibition [5]: inconclusive: -22.8%
- Potency [3, 8]: inactive

SMILES: CCOB(OCC)OCC
- Potency [1]: inconclusive: 0.0969 µM [activator, single point]
- Potency [4]: inactive
- activity change, negative = inhibition [7]: inconclusive: 1.88%

SMILES: CC/C=C\CC/C=C/C(OCC)OCC
- Potency [1]: active: 61.1 µM
- Potency [4]: inconclusive: 61.1 µM [activator]
- Potency [3, 8]: inactive

SMILES: C/C=C/C=N/NC(=O)c1ccncc1
- Potency [1]: inconclusive: 33.5 µM [activator]
- Potency [4]: inconclusive: 29.8 µM [fluorescent, partial curve, poor fit]
- Potency [3, 8]: inactive
- Potency [6]: inconclusive: 8.91 µM

SMILES: CC1(C)[C@@H]2CC[C@@]1(C)C(=O)C2
- Potency [1]: inconclusive: 0.611 µM [activator, single point]
- activity change, negative = inhibition [4]: inconclusive: -11.1%
- activation [3, 8]: inconclusive: 42.7%
- activation ([3]; at 42.5 µM (top of the series)): inactive: 9.19%
- activation ([3]; at 92.4 µM (top of the series)): inactive: -11.4%

SMILES: CN1[C@@H]2CC[C@H]1CC(OC(=O)c1c[nH]c3ccccc13)C2 (stereo not given in full)
- Potency [1]: inactive
- activity change, negative = inhibition [5]: inconclusive: 4.67% [at 42.5 µM]
- Potency [3, 8]: inconclusive: 13.3 µM [inhibitor, partial curve, poor fit]

SMILES: OCC#CCO
- Potency [1]: inconclusive: 68.6 µM [activator]
- Potency [4]: inactive
- activation [3, 8]: inconclusive: 36%

SMILES: C#C[C@]1(O)CC[C@H]2[C@@H]3CCC4=CC(=O)CC[C@@H]4[C@H]3CC[C@@]21C
- Potency [1]: inconclusive: 61.1 µM [activator]
- Potency [4]: inconclusive: 49.6 µM [fluorescent]
- activation [3, 8]: inconclusive: 2.15%
- activation ([3]; at 42.5 µM (top of the series)): inactive: 1.27%

SMILES: CCCOCC(C)O (stereo not given)
- Potency [1]: inactive
- Potency [4]: inactive
- activation [3, 8]: inconclusive: 11.9%
- activation ([3]; at 92.4 µM (top of the series)): inactive: -20%

SMILES: CCc1c(C)cc(N)c(CC)c1N
- Potency [1]: inconclusive: 27.3 µM [activator, single point]
- activity change, negative = inhibition [5]: inconclusive: -27.1%
- Potency [3, 8]: inconclusive: 19.3 µM [inhibitor]

SMILES: Nc1c(Cl)cc(Cl)cc1[N+](=O)[O-]
- Potency [1]: inconclusive: 27.3 µM [activator, single point]
- activity change, negative = inhibition [4]: inconclusive: -21.4%
- Potency [3, 8]: inactive

SMILES: N#Cc1ccc(C(=O)O)cc1
- Potency [1]: inactive
- activity change, negative = inhibition [4]: inconclusive: -3.94%
- activation [3, 8]: inconclusive: 31.2%

SMILES: NS(=O)(=O)c1ccccc1OC(F)(F)F
- Potency [1]: inactive
- Potency [4]: inactive
- activation [3, 8]: inconclusive: 13.8%

SMILES: Nc1ccc(S(=O)(=O)Nc2nccs2)cc1
- Potency [1]: inconclusive: 68.6 µM [activator, single point]
- activity change, negative = inhibition [4]: inconclusive: 9.39%
- activation ([3]; at 42.5 µM (top of the series)): inconclusive: -25.3%
- activation ([3]; at 92.4 µM (top of the series)): inconclusive: -25.9% and inactive: 21.7% and inactive: -6.28%
- activation [6]: inconclusive: 25.5% [at 42.5 µM]

SMILES: CC(C)CC(C)O (stereo not given)
- Potency [1]: inconclusive: 68.6 µM [activator]
- activity change, negative = inhibition [4]: inconclusive: -7.18%
- Potency [3, 8]: inactive
